Some of these results come from one statement about several compounds together. For at least one compound, name, drawing or mass did not settle the structure.
How the values were obtained:
topoisomerase I = biological target: T1, topoisomerase I (Homo sapiens, UniProt P11387); assay: Topoisomerase I inhibition, pBR322 DNA relaxation; type: biochemical; details: 37° C., 30 minutes
T1 construct: purchased TopoGEN
T1 sequence (P11387 1-765): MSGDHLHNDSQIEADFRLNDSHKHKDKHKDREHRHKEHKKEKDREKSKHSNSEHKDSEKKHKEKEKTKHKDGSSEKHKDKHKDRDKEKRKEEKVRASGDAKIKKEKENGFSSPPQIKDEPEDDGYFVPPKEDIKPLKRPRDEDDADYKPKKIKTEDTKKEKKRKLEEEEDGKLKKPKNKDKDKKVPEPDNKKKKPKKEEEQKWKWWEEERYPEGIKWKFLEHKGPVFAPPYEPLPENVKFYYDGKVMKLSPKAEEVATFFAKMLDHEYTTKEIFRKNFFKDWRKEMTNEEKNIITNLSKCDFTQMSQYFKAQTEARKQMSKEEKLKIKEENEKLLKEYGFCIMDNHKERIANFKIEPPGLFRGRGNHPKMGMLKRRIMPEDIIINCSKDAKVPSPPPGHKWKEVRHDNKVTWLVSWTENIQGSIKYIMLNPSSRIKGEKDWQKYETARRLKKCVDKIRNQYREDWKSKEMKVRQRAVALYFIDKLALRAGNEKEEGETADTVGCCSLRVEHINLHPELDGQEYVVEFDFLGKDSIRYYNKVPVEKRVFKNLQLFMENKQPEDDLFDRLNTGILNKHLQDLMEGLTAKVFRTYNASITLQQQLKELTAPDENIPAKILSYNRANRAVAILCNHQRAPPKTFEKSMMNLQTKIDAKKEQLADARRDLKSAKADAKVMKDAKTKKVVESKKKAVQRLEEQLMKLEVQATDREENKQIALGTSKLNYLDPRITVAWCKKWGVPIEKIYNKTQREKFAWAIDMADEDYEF
Method: (1) 2 μl of topoisomerase II (TopoGEN; 2 units/μl), 2 μl of 10-fold concentrated buffer [0.5 M Tris-HCl (pH 8.0), 1.2 M KCl, 0.1 M MgCl2, 2.5 mM adenosine triphosphate, 5 mM dithiothreitol], 2 μl of 0.1% bovine serum albumin (Takara Shuzo), 11 μl of distilled water and 2 μl of distilled water (control) or 2 μl of one of aqueous solutions of dipropionylcyclopentenone, diisobutyrylcyclopentenone, dibenzoylcyclopentenone, dihexanoylcyclopentenone, di-2-hexenoylcyclopentenone, dimethoxyacetylcyclopentenone, dimethylfumarylcyclopentenone or dimethylmaleylcyclopentenone at varying concentrations were mixed together. 1 μl of 0.25 μg/μl pBR322 DNA (Takara Shuzo) was added thereto. The resulting mixture was reacted at 37° C. After reacting for 30 minutes, 2 μl of an aqueous solution containing 1% sodium dodecyl sulfate, 50% glycerol and 0.02% Bromophenol Blue was added thereto to stop the reaction. […]
(2) The activity of inhibiting topoisomerase I of each of the cyclopentenone derivatives was determined as described in Example 3-(1) except that topoisomerase I (TopoGEN; 0.01 unit/μl) was used in place of topoisomerase II and a solution containing 100 mM Tris-HCl (pH 7.9), 10 mM EDTA, 1 mM spermidine and 50% glycerol was used as 10-fold concentrated buffer.

Protein sequences, listed by entry. Tags and fused reporters are not part of them. Lines headed by an entry give the natural chain unless they say otherwise; changes in a name come on top.
UniProt P11388: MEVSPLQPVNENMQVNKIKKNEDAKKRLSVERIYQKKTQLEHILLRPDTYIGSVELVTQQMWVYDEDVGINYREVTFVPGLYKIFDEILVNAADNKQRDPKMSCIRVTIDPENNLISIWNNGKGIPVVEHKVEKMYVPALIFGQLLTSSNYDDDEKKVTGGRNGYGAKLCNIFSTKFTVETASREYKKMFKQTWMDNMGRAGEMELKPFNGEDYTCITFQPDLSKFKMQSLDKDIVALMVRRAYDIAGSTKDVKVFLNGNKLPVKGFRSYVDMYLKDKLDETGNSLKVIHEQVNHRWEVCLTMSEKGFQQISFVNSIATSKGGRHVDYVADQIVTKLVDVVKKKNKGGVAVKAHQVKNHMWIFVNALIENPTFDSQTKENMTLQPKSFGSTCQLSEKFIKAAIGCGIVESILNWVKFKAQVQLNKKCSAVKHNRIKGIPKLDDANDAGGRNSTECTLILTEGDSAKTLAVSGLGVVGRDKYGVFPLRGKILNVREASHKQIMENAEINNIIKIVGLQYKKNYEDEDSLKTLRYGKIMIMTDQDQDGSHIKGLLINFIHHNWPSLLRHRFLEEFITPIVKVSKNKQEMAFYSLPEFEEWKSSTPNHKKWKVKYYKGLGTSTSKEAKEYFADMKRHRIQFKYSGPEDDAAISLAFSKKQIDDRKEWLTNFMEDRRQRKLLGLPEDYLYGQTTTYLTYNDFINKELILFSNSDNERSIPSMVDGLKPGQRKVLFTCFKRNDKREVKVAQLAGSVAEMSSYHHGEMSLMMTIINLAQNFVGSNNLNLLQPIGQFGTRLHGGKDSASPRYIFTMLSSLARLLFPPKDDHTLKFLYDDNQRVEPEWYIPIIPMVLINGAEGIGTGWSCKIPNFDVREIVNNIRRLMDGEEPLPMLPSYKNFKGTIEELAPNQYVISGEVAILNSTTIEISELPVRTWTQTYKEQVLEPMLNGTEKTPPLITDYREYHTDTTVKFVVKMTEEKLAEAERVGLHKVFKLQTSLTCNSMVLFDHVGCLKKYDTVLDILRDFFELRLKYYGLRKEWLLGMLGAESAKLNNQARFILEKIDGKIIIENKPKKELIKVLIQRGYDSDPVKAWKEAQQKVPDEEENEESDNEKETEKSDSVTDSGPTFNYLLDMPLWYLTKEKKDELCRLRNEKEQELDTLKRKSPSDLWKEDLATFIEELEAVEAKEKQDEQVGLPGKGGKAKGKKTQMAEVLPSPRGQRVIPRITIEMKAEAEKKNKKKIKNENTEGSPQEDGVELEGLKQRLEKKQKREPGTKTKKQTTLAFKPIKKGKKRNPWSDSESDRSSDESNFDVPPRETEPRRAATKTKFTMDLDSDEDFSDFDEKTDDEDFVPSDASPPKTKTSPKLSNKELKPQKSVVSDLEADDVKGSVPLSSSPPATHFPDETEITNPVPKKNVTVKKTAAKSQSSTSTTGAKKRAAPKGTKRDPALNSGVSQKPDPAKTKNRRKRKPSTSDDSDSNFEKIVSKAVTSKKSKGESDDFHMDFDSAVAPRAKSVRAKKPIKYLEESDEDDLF

topoisomerase II = biological target: T2, topoisomerase II (Homo sapiens, UniProt P11388); assay: Topoisomerase II inhibition, pBR322 DNA relaxation; type: biochemical; details: 37° C., 30 minutes
T2 construct: purchased TopoGEN
Method: (1) 2 μl of topoisomerase II (TopoGEN; 2 units/μl), 2 μl of 10-fold concentrated buffer [0.5 M Tris-HCl (pH 8.0), 1.2 M KCl, 0.1 M MgCl2, 2.5 mM adenosine triphosphate, 5 mM dithiothreitol], 2 μl of 0.1% bovine serum albumin (Takara Shuzo), 11 μl of distilled water and 2 μl of distilled water (control) or 2 μl of one of aqueous solutions of dipropionylcyclopentenone, diisobutyrylcyclopentenone, dibenzoylcyclopentenone, dihexanoylcyclopentenone, di-2-hexenoylcyclopentenone, dimethoxyacetylcyclopentenone, dimethylfumarylcyclopentenone or dimethylmaleylcyclopentenone at varying concentrations were mixed together. 1 μl of 0.25 μg/μl pBR322 DNA (Takara Shuzo) was added thereto. The resulting mixture was reacted at 37° C. After reacting for 30 minutes, 2 μl of an aqueous solution containing 1% sodium dodecyl sulfate, 50% glycerol and 0.02% Bromophenol Blue was added thereto to stop the reaction.
20 μl of the reaction mixture was applied to 1% agarose gel prepared using agarose L03 (Takara Shuzo) and TAE buffer [40 mM Tris, 5 mM sodium acetate, 1 mm ethylenediaminetetraacetic acid disodium salt (EDTA); adjusted to pH 7.8 using acetic acid] and electrophoresed in TAE buffer. After electrophoresis, the gel was soaked in a 1 μg/ml aqueous ethidium bromide solution. The gel was exposed to ultraviolet rays to visualize the electophoretic pattern of DNA.

Structure (SMILES) | Concentration at which change of DNA from superhelical type to relaxed type was partially or completely inhibited (topoisomerase I) [µM] | Concentration at which change of DNA from superhelical type to relaxed type was partially or completely inhibited (topoisomerase II) [µM]
CCC(=O)OC1C=CC(=O)C1OC(=O)CC (centres unmarked) | ≥ 1000 | 
O=C(OC1C=CC(=O)C1OC(=O)c1ccccc1)c1ccccc1 (centres unmarked) |  | ≥ 1

Source: US6548543B1, “Remedies or preventives containing cyclopentenone compounds as the active ingredient” (Takara Shuzo Co., Ltd., priority 1998, dated 2003)
